PubChem BioAssay AID1347076 (National Center for Advancing Translational Sciences (NCATS), 2019)
Out of some 400,000 compounds screened, about 13,000 (3.2%) were called active. Inconclusive means that the source gave no clear call. Such entries were picked first, then a sample of the others. The call rests on the fitted dose curve; in most records, active means well fitted cell-killing curve with a large enough effect; inconclusive means small, poorly fitted or top-dose-only effect, or effect the other way; inactive means flat fitted curve, though single readings scatter. Where the call is inconclusive, the potency comes from a doubtful curve fit.

experiment: qHTS assay for MDR1-selective chemotherapeutics: Primary screen using the drug-selected MDR subline cells KB-V1; conditions: KB-V1 MDR cells viability, CellTiter-Glo, 72 h; activity change, negative = cytotoxicity: at 46.1 µM (top of the series); further: nearly all actives have a fitted effect of over 60% in size
How it was run: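 KB-V1 cells (P-gp-expressing MDR subline of KB-3-1) in phenol-red-free DMEM with 10% FBS were exposed to library compounds over a concentration series for 72 h at 37 degrees C. Viability read by CellTiter-Glo luminescence; concentration-effect curves fitted after normalization.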
On the % scale 0 is the no-effect control and ±100 the full control effect; potency means the concentration at half of the fitted maximal effect.

SMILES	Potency	activity change, negative = cytotoxicity
CCSc1ncc(Cl)c(C(=O)Nc2ccccc2)n1	inconclusive: 18.4 µM [cytotoxic, single point]	–
O=C1CC(c2cccc([N+](=O)[O-])c2)c2c(ccc3ccccc23)N1 (configuration not stated)	active: 5.8 µM	–
O=S(=O)(c1ccc(S(=O)(=O)N(Cc2cccs2)CC2CCCO2)cc1)N1CCCCC1 (configuration not stated)	active: 7.31 µM	–
Cc1onc(-c2ccccc2Cl)c1C(=O)O/N=C(\N)c1cccc([N+](=O)[O-])c1	inconclusive: 20.6 µM [cytotoxic, single point]	–
CCOC(=O)c1c(Nc2ccc(C)cc2)nnc(-c2ccccc2)c1-c1ccccc1	active: 23.1 µM	–
Cc1[nH]c2ccccc2c1C(=O)C(=O)Nc1ccc2c(c1)OCCO2	inactive	–
CCN(CC(=O)NCC1CCCO1)S(=O)(=O)c1ccc2ccccc2c1 (configuration not stated)	inconclusive: 8.2 µM [cytotoxic, partial curve]	–
COc1cccc(C(O)c2nc(-c3cccc(C(C)C)c3)cs2)c1 (configuration not stated)	inactive	–
CCn1c(=O)c2cc(C(=O)N(C)CC(OC)OC)sc2c2ccccc21	inactive	–
O=C(CN(Cc1ccc(Cl)cc1)C(=O)CN1C(=O)COc2ccccc21)NC1CCCC1	inconclusive: 9.2 µM [cytotoxic, partial curve]	–
COc1ccc2c(C)c(CCC(=O)NCCc3ccccc3OC)c(=O)oc2c1	inconclusive: 20.6 µM [cytotoxic, single point]	–
CC1CC(C)CN(S(=O)(=O)c2ccc(C(=O)Nc3nnc(-c4cccs4)o3)cc2)C1 (configuration not stated)	active: 12.6 µM	–
Cc1sc2nc(CN3CCCC3)nc(N3CCN(S(=O)(=O)c4cccs4)CC3)c2c1C	active: 18.4 µM	–
COC(=O)CCSc1nc2sc3c(c2c(=O)n1Cc1ccccc1)CCC(C(C)(C)C)C3 (configuration not stated)	inactive	–
COCCCN(CC(=O)Nc1ccc(N2CCOCC2)cc1)S(=O)(=O)c1ccc(C)cc1	inconclusive: 9.2 µM [cytotoxic, partial curve]	–
CCOC(=O)c1cnc2c(Cl)cccc2c1NCCN1CCOCC1	inconclusive: 10.3 µM [cytotoxic, partial curve, poor fit]	inconclusive: -13.6%
Cc1ccc(NC(=O)c2cccc(NC(=O)/C=C/c3ccco3)c2)cc1C	inconclusive: 4.11 µM [cytotoxic, partial curve]	–
CN1CCN(C(=O)c2ccc(-c3cc4nc(NCc5cccnc5)n(C)c(=O)c4s3)cc2)CC1	inactive	–
O=S(=O)(c1ccc(Cl)cc1)N1CCN(Cc2cccnc2)CC1	inconclusive: 29.1 µM [cytotoxic, single point]	–
CCOC(=O)/C=C/C(=O)NNC(=O)c1ccccc1Cl	inactive	–
CCc1nc2c(OCCc3cccc(OC)c3)cccn2c1N(C=O)Cc1ccc(OC)cc1	inconclusive: 8.2 µM [cytotoxic, partial curve]	–
Cc1cc(=O)n2nc(N3CCCC3C(=O)NCCCN3CC(C)CC(C)C3)sc2n1 (configuration not stated)	inconclusive: 23.1 µM [rising, partial curve, poor fit]	–
CC(Nc1ncnc2ccccc12)c1ccccc1 (configuration not stated)	inconclusive: 0.116 µM [cytotoxic, full curve, poor fit]	–

SMILES	Potency	activity change, negative = cytotoxicity
CN(c1ccccc1)S(=O)(=O)c1ccc(C(=O)Nc2cccc(S(=O)(=O)N3CCOCC3)c2)cc1	–	inconclusive: -34.9% [cytotoxic]
Cc1nc2ccccn2c1-c1csc(Nc2cccc(C(=O)O)c2)n1	inactive	–
COC(=O)c1ccc(NC(=O)CSc2ccccc2)cc1	inconclusive: 29.1 µM [cytotoxic, single point]	–
COC(=O)c1ccc(COc2ccc3c(c2)CCC3)o1	inactive	–
O=C(CCC1N=C2c3ccccc3N=C(SCc3ccccc3F)N2C1=O)NC1CCCCC1 (configuration not stated)	inconclusive: 29.1 µM [cytotoxic, single point]	–
NC(=O)NCCC1=CCCCC1	inactive	–
COc1ccc(C(=O)COC(=O)c2ccccc2O)c(OC)c1	inactive	–
CCOc1ccc(OCCN(C)Cc2ccccc2)cc1	inactive	–
COc1ccc(OCCn2c(C)nc3ccccc32)cc1	inconclusive: 14.6 µM [cytotoxic, partial curve, poor fit]	–
CCC(=O)Nc1ccc2oc(-c3cccc(C)c3)nc2c1	inconclusive: 7.31 µM [cytotoxic, partial curve]	–
COc1ccc(NC(=O)CN(Cc2ccccc2)S(=O)(=O)c2ccc(C)cc2)cc1Cl	inconclusive: 0.0052 µM [cytotoxic, full curve, poor fit]	–
CCCCCc1cc(=O)oc2c(C(CCN3CCCCC3)c3cc(OC)c(OC)c(OC)c3)c(OC)cc(OC)c12 (configuration not stated)	inconclusive: 29.1 µM [cytotoxic, single point]	–
COc1cccc(N2CCN(Cc3ccco3)CC2)c1	inactive	–
CCOc1ncccc1C(=O)N1CCN(S(=O)(=O)c2ccc3ccccc3c2)CC1	inconclusive: 10.3 µM [cytotoxic, partial curve]	–
CCOc1ccc(C(=O)Nc2ccccc2N2CCCC2)cc1	inconclusive: 23.1 µM [cytotoxic, single point]	–
Cn1cnc([N+](=O)[O-])c1SCC(O)CCl (configuration not stated)	inconclusive: 18.4 µM [rising, partial curve]	–
CS(=O)(=O)N1CCCCC1CCN1CCCCC1 (configuration not stated)	inactive	–
CCc1ccccc1OCc1nnc(N)s1	inconclusive: 18.4 µM [cytotoxic, single point]	–
Cc1ccc(NC2CCCN(C(=O)C3CCCC3)C2)cc1C (configuration not stated)	inconclusive: 29.1 µM [cytotoxic, single point]	–
NCCc1nnc(SCC(=O)Nc2ccc(Br)cc2)o1	inconclusive: 2.59 µM [rising, full curve, poor fit]	–
Cc1cc(NC(=O)NC(C(F)(F)F)C(F)(F)F)no1	inconclusive: 2.31 µM [rising, full curve]	–
CCOC(=O)N1CCN(S(=O)(=O)N2CCCC(C(=O)NCc3ccc(C)cc3)C2)CC1 (configuration not stated)	inconclusive: 20.6 µM [cytotoxic, partial curve]	–
CCC/C(=N\NC(=O)c1ccc(CSc2nncn2C)cc1)c1ccccc1	inconclusive: 2.06 µM [rising, full curve]	–

Exported with bars between the fields: entries from further up.
SMILES | Potency | activity change, negative = cytotoxicity
Cn1cnc([N+](=O)[O-])c1SCC(O)CCl (configuration not stated) | inconclusive: 18.4 µM [rising, partial curve] | –
CS(=O)(=O)N1CCCCC1CCN1CCCCC1 (configuration not stated) | inactive | –
CCc1ccccc1OCc1nnc(N)s1 | inconclusive: 18.4 µM [cytotoxic, single point] | –
